# Measurements published in the supplement of paper PMC10849652.
# The chains behind the UniProt entries cited, without tags or fusion partners. Where a name states a change or a piece, a line headed by the entry shows the natural chain unless it says otherwise.
# UniProt Q8TEA1: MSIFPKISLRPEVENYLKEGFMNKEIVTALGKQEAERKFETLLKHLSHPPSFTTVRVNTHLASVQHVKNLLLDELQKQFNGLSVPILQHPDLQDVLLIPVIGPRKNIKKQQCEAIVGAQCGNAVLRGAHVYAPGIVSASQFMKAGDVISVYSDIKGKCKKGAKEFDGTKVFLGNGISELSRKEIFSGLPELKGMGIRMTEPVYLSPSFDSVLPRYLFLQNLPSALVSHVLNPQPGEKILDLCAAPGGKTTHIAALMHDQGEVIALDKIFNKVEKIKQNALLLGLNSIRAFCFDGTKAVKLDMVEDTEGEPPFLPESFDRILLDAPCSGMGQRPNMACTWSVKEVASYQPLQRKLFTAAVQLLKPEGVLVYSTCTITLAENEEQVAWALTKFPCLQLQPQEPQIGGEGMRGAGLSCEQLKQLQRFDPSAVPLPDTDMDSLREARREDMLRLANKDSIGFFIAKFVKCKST
# UniProt Q8WVJ2: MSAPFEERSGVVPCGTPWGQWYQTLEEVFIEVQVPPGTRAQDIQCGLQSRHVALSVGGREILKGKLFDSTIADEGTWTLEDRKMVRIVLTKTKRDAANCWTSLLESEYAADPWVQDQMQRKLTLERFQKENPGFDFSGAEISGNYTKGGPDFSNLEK
# UniProt Q8NFH3: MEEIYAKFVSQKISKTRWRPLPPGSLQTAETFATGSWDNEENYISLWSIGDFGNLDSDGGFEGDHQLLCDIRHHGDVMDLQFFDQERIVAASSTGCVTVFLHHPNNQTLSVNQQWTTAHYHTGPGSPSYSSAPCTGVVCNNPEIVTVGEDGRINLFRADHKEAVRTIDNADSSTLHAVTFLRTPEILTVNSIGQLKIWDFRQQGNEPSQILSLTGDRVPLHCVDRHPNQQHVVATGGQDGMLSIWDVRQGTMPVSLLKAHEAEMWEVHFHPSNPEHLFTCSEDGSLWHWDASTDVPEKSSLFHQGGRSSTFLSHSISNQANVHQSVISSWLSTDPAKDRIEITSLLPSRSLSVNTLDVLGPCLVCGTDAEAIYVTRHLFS
# UniProt O43482, whole entry, looked up: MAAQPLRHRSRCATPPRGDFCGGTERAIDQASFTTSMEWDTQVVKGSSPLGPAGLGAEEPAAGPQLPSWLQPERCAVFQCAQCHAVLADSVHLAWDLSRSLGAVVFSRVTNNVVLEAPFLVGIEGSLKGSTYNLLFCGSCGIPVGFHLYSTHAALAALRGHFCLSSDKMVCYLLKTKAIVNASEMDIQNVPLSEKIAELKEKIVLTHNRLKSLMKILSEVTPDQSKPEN
# UniProt Q12769: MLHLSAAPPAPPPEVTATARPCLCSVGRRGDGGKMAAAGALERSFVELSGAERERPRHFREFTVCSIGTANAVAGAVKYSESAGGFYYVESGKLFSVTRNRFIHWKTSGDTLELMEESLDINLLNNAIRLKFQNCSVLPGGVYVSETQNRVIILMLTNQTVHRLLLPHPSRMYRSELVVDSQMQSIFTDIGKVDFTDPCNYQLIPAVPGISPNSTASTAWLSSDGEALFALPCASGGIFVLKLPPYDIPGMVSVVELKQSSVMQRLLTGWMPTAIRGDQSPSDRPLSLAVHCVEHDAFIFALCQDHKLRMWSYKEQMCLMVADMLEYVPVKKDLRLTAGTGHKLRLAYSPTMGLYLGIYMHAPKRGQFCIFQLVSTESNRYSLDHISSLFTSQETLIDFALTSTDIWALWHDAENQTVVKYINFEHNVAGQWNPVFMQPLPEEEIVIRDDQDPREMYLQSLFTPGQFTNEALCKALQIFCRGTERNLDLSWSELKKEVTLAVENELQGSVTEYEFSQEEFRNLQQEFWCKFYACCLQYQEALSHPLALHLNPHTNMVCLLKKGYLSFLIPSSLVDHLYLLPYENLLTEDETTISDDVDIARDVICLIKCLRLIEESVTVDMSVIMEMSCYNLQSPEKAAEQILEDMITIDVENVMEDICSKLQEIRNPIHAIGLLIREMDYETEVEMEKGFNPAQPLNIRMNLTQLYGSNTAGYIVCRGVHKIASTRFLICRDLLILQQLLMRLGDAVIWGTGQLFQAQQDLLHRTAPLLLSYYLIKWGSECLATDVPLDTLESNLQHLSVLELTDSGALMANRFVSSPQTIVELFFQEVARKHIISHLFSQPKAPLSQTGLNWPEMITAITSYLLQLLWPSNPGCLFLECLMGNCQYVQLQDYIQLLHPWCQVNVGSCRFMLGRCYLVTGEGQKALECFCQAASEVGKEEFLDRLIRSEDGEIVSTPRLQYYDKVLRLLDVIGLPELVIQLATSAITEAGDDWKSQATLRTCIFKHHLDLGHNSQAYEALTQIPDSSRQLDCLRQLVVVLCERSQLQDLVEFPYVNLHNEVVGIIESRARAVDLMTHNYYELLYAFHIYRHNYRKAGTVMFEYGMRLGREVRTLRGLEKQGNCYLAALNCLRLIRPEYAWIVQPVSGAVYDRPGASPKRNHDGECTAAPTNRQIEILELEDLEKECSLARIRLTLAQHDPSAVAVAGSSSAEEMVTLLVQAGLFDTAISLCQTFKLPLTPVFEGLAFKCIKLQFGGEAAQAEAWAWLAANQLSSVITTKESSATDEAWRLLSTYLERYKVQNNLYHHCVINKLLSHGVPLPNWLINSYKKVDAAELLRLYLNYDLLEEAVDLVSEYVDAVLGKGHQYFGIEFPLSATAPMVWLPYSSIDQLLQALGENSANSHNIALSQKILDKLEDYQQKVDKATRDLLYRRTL
# UniProt Q32P28: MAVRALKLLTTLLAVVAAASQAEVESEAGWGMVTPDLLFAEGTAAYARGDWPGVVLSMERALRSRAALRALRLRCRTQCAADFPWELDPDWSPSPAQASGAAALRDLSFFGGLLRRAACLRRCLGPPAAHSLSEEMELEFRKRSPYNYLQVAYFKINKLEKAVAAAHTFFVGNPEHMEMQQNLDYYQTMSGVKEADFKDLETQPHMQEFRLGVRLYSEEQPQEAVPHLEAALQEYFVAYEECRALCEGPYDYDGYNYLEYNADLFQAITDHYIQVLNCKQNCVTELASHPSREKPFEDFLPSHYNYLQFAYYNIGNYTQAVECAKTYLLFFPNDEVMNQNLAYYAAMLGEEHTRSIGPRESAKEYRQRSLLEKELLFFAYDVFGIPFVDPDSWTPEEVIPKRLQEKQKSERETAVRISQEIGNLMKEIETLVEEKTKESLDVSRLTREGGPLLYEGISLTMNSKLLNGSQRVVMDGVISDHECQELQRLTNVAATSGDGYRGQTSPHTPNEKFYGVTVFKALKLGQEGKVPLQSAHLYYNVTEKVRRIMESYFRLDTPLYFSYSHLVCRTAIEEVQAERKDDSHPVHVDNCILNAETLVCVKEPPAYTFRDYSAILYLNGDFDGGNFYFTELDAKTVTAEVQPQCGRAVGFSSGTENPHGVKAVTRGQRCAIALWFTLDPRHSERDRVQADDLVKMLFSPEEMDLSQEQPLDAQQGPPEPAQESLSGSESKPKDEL
# UniProt Q96MF7: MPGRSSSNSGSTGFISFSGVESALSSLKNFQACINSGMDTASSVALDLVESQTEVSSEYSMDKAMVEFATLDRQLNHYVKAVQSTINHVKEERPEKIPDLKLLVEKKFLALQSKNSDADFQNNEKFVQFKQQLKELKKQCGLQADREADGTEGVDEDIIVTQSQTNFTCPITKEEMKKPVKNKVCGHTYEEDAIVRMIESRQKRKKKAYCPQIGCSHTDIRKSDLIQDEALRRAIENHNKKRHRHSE
# UniProt Q8NFH5: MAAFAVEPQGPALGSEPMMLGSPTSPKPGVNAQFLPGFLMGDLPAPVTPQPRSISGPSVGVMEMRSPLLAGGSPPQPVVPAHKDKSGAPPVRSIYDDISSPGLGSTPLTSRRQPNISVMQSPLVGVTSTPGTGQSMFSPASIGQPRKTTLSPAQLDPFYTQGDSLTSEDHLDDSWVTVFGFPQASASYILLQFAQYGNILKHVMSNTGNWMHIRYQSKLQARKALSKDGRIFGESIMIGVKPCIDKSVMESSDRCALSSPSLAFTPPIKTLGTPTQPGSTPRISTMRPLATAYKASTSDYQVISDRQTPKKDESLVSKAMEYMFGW
# UniProt Q9NWU1, whole entry, looked up: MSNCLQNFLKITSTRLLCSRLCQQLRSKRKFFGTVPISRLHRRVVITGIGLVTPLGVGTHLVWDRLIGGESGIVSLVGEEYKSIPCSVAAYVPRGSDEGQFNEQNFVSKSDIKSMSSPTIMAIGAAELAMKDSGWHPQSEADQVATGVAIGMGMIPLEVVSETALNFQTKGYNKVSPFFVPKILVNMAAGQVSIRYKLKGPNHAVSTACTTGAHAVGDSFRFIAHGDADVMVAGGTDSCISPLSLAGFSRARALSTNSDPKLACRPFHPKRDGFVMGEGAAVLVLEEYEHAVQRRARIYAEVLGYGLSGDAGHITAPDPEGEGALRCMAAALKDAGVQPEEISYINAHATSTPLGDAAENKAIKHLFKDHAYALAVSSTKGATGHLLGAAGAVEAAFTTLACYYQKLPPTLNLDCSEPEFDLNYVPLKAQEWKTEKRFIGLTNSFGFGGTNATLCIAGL
# UniProt O60313: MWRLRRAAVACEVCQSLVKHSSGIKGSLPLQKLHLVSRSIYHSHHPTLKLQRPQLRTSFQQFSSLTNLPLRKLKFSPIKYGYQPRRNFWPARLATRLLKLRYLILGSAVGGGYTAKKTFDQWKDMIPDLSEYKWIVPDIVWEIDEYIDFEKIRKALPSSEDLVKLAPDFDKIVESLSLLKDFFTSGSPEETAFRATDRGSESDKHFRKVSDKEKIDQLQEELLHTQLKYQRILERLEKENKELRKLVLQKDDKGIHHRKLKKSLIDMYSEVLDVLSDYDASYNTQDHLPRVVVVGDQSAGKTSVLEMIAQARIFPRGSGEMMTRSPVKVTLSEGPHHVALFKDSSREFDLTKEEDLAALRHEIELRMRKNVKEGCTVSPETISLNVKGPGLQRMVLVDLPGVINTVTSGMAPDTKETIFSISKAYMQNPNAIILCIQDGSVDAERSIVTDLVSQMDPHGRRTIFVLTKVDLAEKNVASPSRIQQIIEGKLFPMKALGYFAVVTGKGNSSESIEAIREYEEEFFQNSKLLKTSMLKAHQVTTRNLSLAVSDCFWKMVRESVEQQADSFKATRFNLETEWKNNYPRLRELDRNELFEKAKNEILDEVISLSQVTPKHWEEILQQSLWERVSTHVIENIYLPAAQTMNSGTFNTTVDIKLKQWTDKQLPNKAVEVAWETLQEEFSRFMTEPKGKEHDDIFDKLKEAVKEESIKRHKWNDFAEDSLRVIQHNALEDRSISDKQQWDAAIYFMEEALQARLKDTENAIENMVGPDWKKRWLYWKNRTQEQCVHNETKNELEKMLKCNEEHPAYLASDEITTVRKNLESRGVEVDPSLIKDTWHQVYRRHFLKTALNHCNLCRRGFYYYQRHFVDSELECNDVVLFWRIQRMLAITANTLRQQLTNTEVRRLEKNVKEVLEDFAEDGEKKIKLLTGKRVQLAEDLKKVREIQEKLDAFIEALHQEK
# UniProt P13674: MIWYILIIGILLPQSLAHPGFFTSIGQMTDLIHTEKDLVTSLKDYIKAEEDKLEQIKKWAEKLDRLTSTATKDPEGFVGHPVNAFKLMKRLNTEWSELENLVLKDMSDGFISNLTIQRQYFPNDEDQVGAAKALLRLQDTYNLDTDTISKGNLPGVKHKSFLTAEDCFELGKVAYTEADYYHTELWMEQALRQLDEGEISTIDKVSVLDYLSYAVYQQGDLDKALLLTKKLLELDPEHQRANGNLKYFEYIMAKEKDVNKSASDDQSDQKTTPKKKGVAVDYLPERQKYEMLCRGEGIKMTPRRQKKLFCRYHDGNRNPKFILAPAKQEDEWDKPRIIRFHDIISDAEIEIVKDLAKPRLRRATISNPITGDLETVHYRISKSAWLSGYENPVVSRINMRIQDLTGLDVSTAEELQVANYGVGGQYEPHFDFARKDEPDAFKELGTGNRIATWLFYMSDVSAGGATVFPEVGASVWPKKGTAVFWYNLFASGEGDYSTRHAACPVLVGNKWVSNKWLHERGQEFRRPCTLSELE
# UniProt Q9BQG2: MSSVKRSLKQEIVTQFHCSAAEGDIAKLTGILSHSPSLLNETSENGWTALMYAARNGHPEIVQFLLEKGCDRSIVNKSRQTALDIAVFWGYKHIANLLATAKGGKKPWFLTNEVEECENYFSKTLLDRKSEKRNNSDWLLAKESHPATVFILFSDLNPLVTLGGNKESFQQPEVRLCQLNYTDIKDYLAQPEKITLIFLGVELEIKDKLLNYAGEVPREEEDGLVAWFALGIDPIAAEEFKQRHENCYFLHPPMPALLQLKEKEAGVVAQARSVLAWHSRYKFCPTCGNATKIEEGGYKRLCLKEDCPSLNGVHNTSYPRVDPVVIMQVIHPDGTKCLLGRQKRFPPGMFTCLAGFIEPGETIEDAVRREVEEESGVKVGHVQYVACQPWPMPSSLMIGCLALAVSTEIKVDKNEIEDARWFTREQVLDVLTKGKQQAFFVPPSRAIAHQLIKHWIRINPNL
# The other results are listed elsewhere or left out.
# Legend:
# Assay in all cases: log2 fold change, soluble protein after heating vs DMSO (PISA); higher = thermal stabilisation; K562 cells, 10 uM, 30 min; active = over 0.2 and 3.5 SD of the protein, either way, in both replicates (recomputed)
# [1] = compound: Cc1ccc(NC(=O)c2ccc(CN3CC[C@H](N(C)C)C3)c(C(F)(F)F)c2)cc1Nc1nccc(-c2cncnc2)n1 [bafetinib]
# Summary of the method: (§1)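 K562 cells (2×10^6 cells/mL) were treated with 10 μM compound for 30 min, and aliquots were heated for 3 min over 48°C-58°C. Pooled aliquots were extracted in PBS with 0.5% NP-40 at 4°C, and the supernatant after 21,000xg for 90 min was measured by TMTpro 16plex LC-MS/MS with channel sums equalised. Reported thermal stability, relative to control samples and from duplicates, is a log2 fold change.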
# [2] = compound: Cc1cccc(CC(=O)N2CCc3c2ccc(-c2cn(C)c4ncnc(N)c24)c3F)n1
# Summary of the method: as §1
# [3] = compound: Cc1cn(-c2cc(NC(=O)c3ccc(C)c(Nc4nccc(-c5cccnc5)n4)c3)cc(C(F)(F)F)c2)cn1 [nilotinib]
# Summary of the method: as §1
# [4] = compound: Cc1nc(Nc2n[nH]c3c2CN(C(=O)N[C@H](CN(C)C)c2ccccc2)C3(C)C)c2sccc2n1
# Summary of the method: as §1
# [5] = compound: Cc1nc(Nc2ncc(C(=O)Nc3c(C)cccc3Cl)s2)cc(N2CCN(CCO)CC2)n1 [dasatinib]
# Summary of the method: as §1
# [6] = compound: Cc1ncc(-c2ccnc(Nc3ccc(S(C)(=O)=O)cc3)n2)n1C(C)C
# Summary of the method: as §1
# [7] = compound: Cn1cc(-c2ccc3c(c2)CCN3C(=O)Cc2cccc(C(F)(F)F)c2)c2c(N)ncnc21
# Summary of the method: as §1
# [8] = compound: Cn1cc(-c2ccc3nnc(C(F)(F)c4ccc5ncccc5c4)n3n2)cn1
# Summary of the method: as §1
# [9] = compound: Cn1cncc1[C@@](N)(c1ccc(Cl)cc1)c1ccc2c(c1)c(-c1cccc(Cl)c1)cc(=O)n2C [tipifarnib]
# Summary of the method: as §1
# [10] = compound: FC(F)(F)c1ccc(/C=C/c2nc(COc3ccc(CCCCn4ccnn4)cc3)co2)cc1 [mubritinib]
# Summary of the method: as §1
# [11] = compound: NC(=O)Nc1cc(-c2cccc(F)c2)sc1C(=O)N[C@H]1CCCNC1
# Summary of the method: as §1
# [12] = compound: NC(=O)c1cnc(N[C@@H]2CCCC[C@@H]2N)nc1Nc1cccc(-n2nccn2)c1
# Summary of the method: as §1
# [13] = compound: NC1(c2ccc(-c3nc4ccn5c(=O)[nH]nc5c4cc3-c3ccccc3)cc2)CCC1
# Summary of the method: as §1
# [14] = compound: NCC(=O)Nc1ccc(-n2nc(C(F)(F)F)cc2-c2ccc3c(ccc4ccccc43)c2)cc1
# Summary of the method: as §1
# [15] = compound: Nc1ccccc1NC(=O)c1ccc(CNC(=O)OCc2cccnc2)cc1 [entinostat]
# Summary of the method: as §1
# [16] = compound: O=C(CCCCCCC(=O)Nc1ccccc1)NO [vorinostat]
# Summary of the method: as §1
# [17] = compound: O=C(CCCCCCNC(=O)c1cnc(N(c2ccccc2)c2ccccc2Cl)nc1)NO [citarinostat]
# Summary of the method: as §1
# [18] = compound: O=C(O)c1ccc2c(c1)nc(Nc1cccc(Cl)c1)c1ccncc12 [silmitasertib]
# Summary of the method: as §1
# [19] = compound: O=C1NC(=O)C(c2cnc3ccccn23)=C1c1cn2c3c(cc(F)cc13)CN(C(=O)N1CCCCC1)CC2
# Summary of the method: as §1
# [20] = compound: c1cc(OCCN2CCCCC2)cc(-c2n[nH]c3ccc(-c4nnc[nH]4)cc23)c1
# Summary of the method: as §1
Target,log2 fold change [1],log2 fold change [2],log2 fold change [3],log2 fold change [4],log2 fold change [5],log2 fold change [6],log2 fold change [7],log2 fold change [8],log2 fold change [9],log2 fold change [10],log2 fold change [11],log2 fold change [12],log2 fold change [13],log2 fold change [14],log2 fold change [15],log2 fold change [16],log2 fold change [17],log2 fold change [18],log2 fold change [19],log2 fold change [20]
NSUN6 (UniProt Q8TEA1),inactive: -0.03,inactive: 0.029,inactive: 0.024,inactive: -0.038,inactive: -0.009,inactive: -0.045,inactive: 0.095,inactive: -0.045,inactive: -0.034,inactive: 0.038,inactive: -0.044,inactive: -0.012,inactive: -0.013,inactive: -0.019,inactive: -0.011,inactive: 0.012,inactive: -0.007,inactive: -0.014,inactive: -0.04,inactive: -0.045
NUCB2 (UniProt P80303),inactive: -0.024,inactive: -0.089,inactive: 0.017,inactive: 0.006,inactive: 0.085,inactive: -0.018,inactive: -0.008,inactive: -0.024,inactive: 0.002,inactive: 0.007,inactive: 0.013,inactive: -0.001,inactive: -0.003,inactive: -0.013,inactive: -0.011,inactive: -0.033,inactive: 0.024,inactive: 0.013,inactive: -0.011,inactive: -0.057
NUDCD2 (UniProt Q8WVJ2),inactive: 0.017,inactive: 0.033,inactive: -0.119,inactive: -0.216,inactive: -0.171,inactive: -0.026,inactive: 0.02,inactive: 0.066,inactive: -0.1,inactive: 0.077,inactive: -0.108,inactive: -0.099,inactive: -0.056,inactive: -0.172,inactive: 0.028,inactive: 0.147,inactive: 0.007,inactive: 0.063,inactive: -0.183,inactive: -0.044
NUP43 (UniProt Q8NFH3),inactive: 0.01,inactive: 0.006,inactive: 0.018,inactive: 0,inactive: 0.107,inactive: 0.011,inactive: 0.006,inactive: -0.065,inactive: -0.048,inactive: 0.055,inactive: 0.042,inactive: -0.005,inactive: -0.053,inactive: 0.014,inactive: -0.003,inactive: 0.01,inactive: 0.091,inactive: 0.003,inactive: -0.028,inactive: 0.008
OIP5 (UniProt O43482),inactive: -0.085,inactive: -0.168,inactive: 0.078,inactive: 0.068,inactive: 0.052,inactive: -0.029,inactive: 0.037,inactive: 0.194,inactive: 0.016,inactive: 0.015,inactive: -0.046,inactive: -0.038,inactive: 0.007,inactive: 0.012,inactive: -0.005,inactive: -0.06,inactive: 0.066,inactive: -0.03,inactive: -0.13,inactive: -0.113
NT5C3A (UniProt Q9H0P0),inactive: 0.133,inactive: 0.063,inactive: 0.081,inactive: -0.022,inactive: -0.037,inactive: -0.027,inactive: -0.034,inactive: -0.04,inactive: -0.016,inactive: 0.271,inactive: -0.072,inactive: -0.007,inactive: -0.136,inactive: -0.006,inactive: -0.019,inactive: 0.098,inactive: 0.08,inactive: 0.047,inactive: 0.078,inactive: -0.085
NUP160 (UniProt Q12769),inactive: -0.127,inactive: 0.043,inactive: -0.078,inactive: -0.136,inactive: -0.045,inactive: -0.06,inactive: -0.025,inactive: -0.034,inactive: -0.042,inactive: -0.042,inactive: 0.031,inactive: -0.058,inactive: -0.066,inactive: -0.062,inactive: 0.008,inactive: 0.05,inactive: 0.018,inactive: 0.075,inactive: 0.021,inactive: -0.09
NUCB1 (UniProt Q02818),inactive: -0.057,inactive: -0.029,inactive: 0.027,inactive: 0.012,inactive: 0.042,inactive: -0.026,inactive: 0.007,inactive: -0.021,inactive: 0.039,inactive: -0.031,inactive: 0.028,inactive: -0.004,inactive: 0.008,inactive: 0.027,inactive: -0.011,inactive: 0.009,inactive: -0.012,inactive: 0.009,inactive: -0.01,inactive: -0.001
P3H1 (UniProt Q32P28),inactive: 0.03,inactive: -0.018,inactive: 0.036,inactive: 0.069,inactive: 0.035,inactive: -0.043,inactive: -0.068,inactive: -0.034,inactive: 0.073,inactive: -0.143,inactive: -0.02,inactive: -0.003,inactive: -0.04,inactive: 0.049,inactive: 0.037,inactive: -0.013,inactive: 0,inactive: 0.022,inactive: 0.003,inactive: -0.114
NSMCE2 (UniProt Q96MF7),inactive: -0.059,active: 0.282,inactive: 0.014,inactive: -0.202,inactive: 0.025,inactive: 0.016,inactive: 0.016,inactive: -0.104,inactive: 0.008,inactive: 0.009,inactive: 0.065,inactive: -0.027,inactive: -0.008,inactive: -0.046,inactive: -0.115,inactive: 0.128,inactive: -0.04,inactive: 0.055,inactive: -0.068,inactive: -0.069
PAAT (UniProt Q9H8K7),inactive: -0.009,inactive: -0.006,inactive: -0.137,inactive: -0.015,inactive: -0.014,inactive: 0.133,inactive: -0.024,inactive: 0,inactive: 0.016,inactive: 0.09,inactive: -0.177,inactive: -0.022,inactive: -0.194,inactive: 0.059,inactive: -0.017,inactive: -0.028,inactive: 0,inactive: 0.202,inactive: -0.083,inactive: -0.188
NUP35 (UniProt Q8NFH5),inactive: 0.008,inactive: -0.009,inactive: -0.012,inactive: -0.002,inactive: -0.077,inactive: 0.032,inactive: -0.038,inactive: 0.033,inactive: -0.022,inactive: -0.005,inactive: -0.029,inactive: -0.056,inactive: -0.035,inactive: -0.044,inactive: 0.048,inactive: 0.056,inactive: -0.034,inactive: 0.022,inactive: -0.072,inactive: -0.084
OXSM (UniProt Q9NWU1),inactive: -0.063,inactive: -0.034,inactive: 0.029,inactive: -0.002,inactive: 0.031,inactive: -0.015,inactive: 0.029,inactive: 0.021,inactive: -0.009,inactive: 0.023,inactive: 0.016,inactive: 0.068,inactive: -0.026,inactive: 0.049,inactive: -0.019,inactive: -0.028,inactive: 0.037,inactive: -0.04,inactive: -0.011,inactive: -0.015
OPA1 isoform 2 (UniProt O60313),inactive: -0.022,inactive: 0.069,inactive: -0.039,inactive: -0.025,inactive: -0.169,inactive: -0.004,inactive: 0.054,inactive: -0.031,inactive: -0.12,inactive: 0.062,inactive: -0.046,inactive: -0.054,inactive: -0.165,inactive: -0.072,inactive: 0.024,inactive: 0.033,inactive: 0.05,inactive: -0.027,inactive: -0.033,inactive: -0.048
P4HA1 isoform 2 (UniProt P13674),inactive: 0.009,inactive: -0.002,inactive: -0.005,inactive: 0.026,inactive: -0.122,inactive: -0.047,inactive: -0.081,inactive: 0.032,inactive: 0.068,inactive: -0.072,inactive: -0.016,inactive: 0.019,inactive: -0.062,inactive: 0.092,inactive: -0.049,inactive: -0.08,inactive: -0.071,inactive: 0.016,inactive: -0.004,inactive: -0.152
NUDT12 (UniProt Q9BQG2),inactive: -0.002,inactive: -0.051,inactive: 0.038,inactive: -0.006,inactive: 0.004,inactive: 0.027,inactive: 0.019,inactive: 0.061,inactive: -0.039,inactive: 0.108,inactive: -0.005,inactive: 0.025,inactive: -0.038,inactive: -0.02,inactive: -0.044,inactive: -0.035,inactive: 0.031,inactive: -0.029,inactive: -0.032,inactive: 0.031

# Record cards, from the list above. Values in the order: log2 fold change [1] | log2 fold change [2] | log2 fold change [3] | log2 fold change [4] | log2 fold change [5] | log2 fold change [6] | log2 fold change [7] | log2 fold change [8] | log2 fold change [9] | log2 fold change [10] | log2 fold change [11] | log2 fold change [12] | log2 fold change [13] | log2 fold change [14] | log2 fold change [15] | log2 fold change [16] | log2 fold change [17] | log2 fold change [18] | log2 fold change [19] | log2 fold change [20]
# NUP160 (UniProt Q12769) in the list: inactive: -0.127 | inactive: 0.043 | inactive: -0.078 | inactive: -0.136 | inactive: -0.045 | inactive: -0.06 | inactive: -0.025 | inactive: -0.034 | inactive: -0.042 | inactive: -0.042 | inactive: 0.031 | inactive: -0.058 | inactive: -0.066 | inactive: -0.062 | inactive: 0.008 | inactive: 0.05 | inactive: 0.018 | inactive: 0.075 | inactive: 0.021 | inactive: -0.09
# NUCB2 (UniProt P80303) in the list: inactive: -0.024 | inactive: -0.089 | inactive: 0.017 | inactive: 0.006 | inactive: 0.085 | inactive: -0.018 | inactive: -0.008 | inactive: -0.024 | inactive: 0.002 | inactive: 0.007 | inactive: 0.013 | inactive: -0.001 | inactive: -0.003 | inactive: -0.013 | inactive: -0.011 | inactive: -0.033 | inactive: 0.024 | inactive: 0.013 | inactive: -0.011 | inactive: -0.057
